Data source: PubChem BioAssay AID686943 (Drosophila RNAi Screening Center, 2013)
Screen: 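Fly genes whose loss alters ERK activation after insulin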 (primary screen). Cells: Drosophila S2R+ haemocyte-like cells expressing YFP-tagged ERK (Rolled). Knock-down reagent: long dsRNA against Drosophila genes. Challenge: insulin stimulation versus unstimulated cells; dose and duration not given. Read-out: 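Antibody staining for doubly phosphorylated ERK divided by ERK-YFP signal, as plate z-scores, in insulin-treated and untreated cells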. Scale: replicate 1, z-score of dpERK with insulin: higher = more active ERK per ERK-YFP after insulin.
The screen tested about 23,000 reagents; below is a random part of those that have a named target and a result. 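Extra replicates exist only for a retested subset of genes; insulin dose and duration not given; both raised and lowered dpERK matter.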 A plus sign joins genes that one reagent is predicted to hit. Further read-outs or replicates are left out here. The record does not give: the amount of reagent, the time to read-out.

What did the screen give for SoYb [DRSC02901]?
replicate 1, z-score of dpERK with insulin: 0.3

With Hao + Pex6 [DRSC06097], what does the deposit list?
replicate 1, z-score of dpERK with insulin: -0.03

How did the screen score Hao + Pex6 [DRSC06704]?
replicate 1, z-score of dpERK with insulin: -0.44

Which result is listed for Chrac-16 [DRSC20343]?
replicate 1, z-score of dpERK with insulin: 0

With Ns2 [DRSC06993], what does the deposit list?
replicate 1, z-score of dpERK with insulin: 1.35

Which result is listed for CG15803 [DRSC15121]?
replicate 1, z-score of dpERK with insulin: 1.17

What is on record for tj [DRSC02011]?
replicate 1, z-score of dpERK with insulin: 0.22

For CG6484 [DRSC06991], what was measured?
replicate 1, z-score of dpERK with insulin: -0.33

With Ac76E [DRSC09642], what does the deposit list?
replicate 1, z-score of dpERK with insulin: -0.81

For Ac76E [DRSC09662], how do the results read?
replicate 1, z-score of dpERK with insulin: -0.08

For RhoGEF4 [DRSC11011], what does the deposit list?
replicate 1, z-score of dpERK with insulin: -0.27

Which result is listed for CG11241 [DRSC11641]?
replicate 1, z-score of dpERK with insulin: 0.1

For CG11241 [DRSC22165], what was measured?
replicate 1, z-score of dpERK with insulin: 0.41

For CG15140 [DRSC02440], what does the deposit list?
replicate 1, z-score of dpERK with insulin: -0.04

What did the screen give for Sgs1 [DRSC00787]?
replicate 1, z-score of dpERK with insulin: 0.45

Which result is listed for Sgs1 [DRSC00848]?
replicate 1, z-score of dpERK with insulin: -0.94

With dnd [DRSC16064], what was measured?
replicate 1, z-score of dpERK with insulin: 0.68

With CG13138 [DRSC02235], what was measured?
replicate 1, z-score of dpERK with insulin: -0.19

4 of these entries, set out differently.
{"predicted target": "Ac76E", "DRSC id": "DRSC09662", "replicate 1, z-score of dpERK with insulin": -0.08}
{"predicted target": "RhoGEF4", "DRSC id": "DRSC11011", "replicate 1, z-score of dpERK with insulin": -0.27}
{"predicted target": "CG11241", "DRSC id": "DRSC11641", "replicate 1, z-score of dpERK with insulin": 0.1}
{"predicted target": "CG11241", "DRSC id": "DRSC22165", "replicate 1, z-score of dpERK with insulin": 0.41}

Further results follow:
With Men [DRSC12924], how do the results read?
replicate 1, z-score of dpERK with insulin: 0.36

How did the screen score Men [DRSC16738]?
replicate 1, z-score of dpERK with insulin: 1.23

Which result is listed for Men [DRSC22694]?
replicate 1, z-score of dpERK with insulin: -0.65

With Alg3 [DRSC04700], how do the results read?
replicate 1, z-score of dpERK with insulin: -0.54

Which result is listed for CG30110 [DRSC05686]?
replicate 1, z-score of dpERK with insulin: -0.65

What did the screen give for CG17470 [DRSC02621]?
replicate 1, z-score of dpERK with insulin: 0.3

With ebd1 [DRSC08565], what was measured?
replicate 1, z-score of dpERK with insulin: 0.67

Which result is listed for Cyp4d8 [DRSC11131]?
replicate 1, z-score of dpERK with insulin: -0.67

With nan [DRSC10551], how do the results read?
replicate 1, z-score of dpERK with insulin: -0.26

What did the screen give for CG15922 [DRSC15128]?
replicate 1, z-score of dpERK with insulin: 0.15

With Cpr30B [DRSC02728], what does the deposit list?
replicate 1, z-score of dpERK with insulin: 0.54

How did the screen score rgn [DRSC11609]?
replicate 1, z-score of dpERK with insulin: -0.54

For Rsbp15 [DRSC14176], what does the deposit list?
replicate 1, z-score of dpERK with insulin: -0.82
